The other results are listed elsewhere or left out.
Test system: T1, CTL2-GFP (C. trachomatis L2/434/Bu, GFP-expressing)
T1 construct: L2/434/Bu, GFP-expressing
Parameters: species or system HeLa; Intracellular C. trachomatis growth in HeLa cells, bulk GFP fluorescence relative to DMSO
Conditions: bulk GFP, single well; 28.5 h, 10 µM; inhibitor

Row | SMILES | % of control remaining
1 | O=C1NN=C(O)C1Cc1ccccc1 (stereo not drawn) [CBK067758] | 104.177%
2 | CSc1cccc(-c2cnccc2-n2ccnc2)c1 [CBK177155] | 95.0934%
3 | CC(=O)NC1(c2ccccc2)CCN(CC(O)c2ccccc2)CC1 (stereo not drawn) [CBK284819] | 101.309%
4 | CCOC(=O)C1C2CCC3(CC(=O)c4cc(Cl)ccc4O3)C21 (stereo not drawn) [CBK284858] | 105.463%
5 | O=C(Nc1ccc2n(c1=O)C[C@H]1C[C@@H]2CN(C(=O)Cc2cccs2)C1)c1ccccc1 [CBK288709] | 107.433%
6 | Cc1c(-c2cc(C(=O)NC(C)C3CC4CCC3C4)on2)cnn1C (stereo not drawn) [CBK281651] | 102.671%
7 | COc1cc(-c2cnc3[nH]c(=O)n([C@@H](CO)C(C)C)c3n2)cc(OC)c1OC [CBK064471] | 173.15%
8 | CC(C)(C)c1ccc(S(=O)(=O)N2CCCC[C@H]2COC(=O)COCC(=O)O)cc1 [CBK200064] | 116.948%
9 | O=c1[nH]nc(CSCc2ccccc2Cl)[nH]1 [CBK267427] | 128.883%
10 | CC(=O)c1ccc(-c2cc(C(=O)NCc3cccc(C(F)(F)F)c3)cnc2-c2ccccc2)s1 [CBK036641] | 164.359%
11 | O=C(NC(=S)Nc1ccc(N2CCN(Cc3ccccc3F)CC2)cc1)c1ccco1 [CBK268946] | 165.525%
12 | Cc1cc(COc2nc3ccccc3nc2N2CCCC2)no1 [CBK115768] | 100%
13 | CC(C)[C@@H](CO)Nc1cncc(-c2ccc(O)cc2)n1 [CBK066038] | 99.6471%
14 | Cc1nc(CN2CCC3(CC2)CN(C(=O)C(C)C)c2ccccc23)cs1 [CBK131476] | 110.823%
15 | CC1c2ccsc2CCN1C(=O)c1ccnn1C(C)C (stereo not drawn) [CBK282079] | 109.526%
16 | CCOC(=O)C(=O)N(C)c1c(CC)nc2c(OCc3ccccc3)cccn12 [CBK147879] | 186.637%
17 | O=C(Cn1c(-c2cncs2)nc2ccccc21)Nc1ccc(C(=O)N2CCCCC2)cc1 [CBK269439] | 156.676%
18 | O=C(CSc1ccc(Cl)cc1)Nc1cccc(-c2nc3ncccc3o2)c1 [CBK264989] | 99.8796%
19 | C=CCN(C)C(=O)[C@H]1C[C@@H](O)[C@H](O)[C@@H]2N=C(Nc3ccc(OC)cc3)S[C@@H]21 [CBK288947] | 124.6%
20 | Cc1cccc(Cl)c1OCC(O)CNCCc1ccccc1 (stereo not drawn) [CBK003076] | 116.138%
21 | COc1cc(Nc2cc(-c3ccco3)ncn2)cc(OC)c1OC [CBK090706] | 110.859%
22 | C#CCOC(=O)Nc1cnc(N2CCOCC2)c(C(F)(F)F)c1 [CBK019679] | 168.572%
23 | Cc1ccc(N2CCN(C3=NC(=O)/C(=C\c4ccc(O)c([N+](=O)[O-])c4)S3)CC2)cc1 [CBK264347] | 100%
24 | O=C(CN1C(=O)[C@@H]2CCCN2c2ncccc21)NC(c1ccccc1)c1ccccc1 [CBK286205] | 98.1948%
25 | CC(Nc1nc(-c2ccc([N+](=O)[O-])cc2)nc2ccccc12)c1ccccc1 (stereo not drawn) [CBK264767] | 100%
26 | O=C(Cc1cc(Cl)ccc1C(F)(F)F)NCCc1c[nH]c2ccc(Cl)cc12 [CBK159759] | 56.5377%

Row | SMILES | % of control remaining
27 | O=C(O)C1C2CCC(O2)C1C(=O)Nc1ccc2c(c1)OCCO2 (stereo not drawn) [CBK263677] | 107.287%
28 | CC(=O)N1CCC[C@H]2NC(=O)CNC(=O)C3(C/C=C/C[C@H]21)CCN(CC1CCC1)CC3 [CBK292129] | 145.12%
29 | COc1ccc(S(=O)(=O)NCCNC(=O)c2cc(-c3cccnc3)cnc2NCc2ccc3c(c2)OCO3)cc1 [CBK076379] | 112.503%
30 | C1=CC2CC1CC2CN1CCN(Cc2cccnc2)CC1 (stereo not drawn) [CBK027284] | 151.051%
31 | CCOC(=O)c1c(C)nc2ccccc2c1O [CBK153666] | 111.205%
32 | CC(C)Nc1nc2ccccc2nc1SCCN(C)C [CBK103672] | 86.7198%
33 | CCc1nn(CC(=O)N(C)C)c(=O)c2cc3sc(C)cc3n12 [CBK284102] | 82.8915%
34 | CCCn1c(C)cc2cc(NC(=O)Cn3cc(C)nn3)ccc21 [CBK281548] | 96.2909%
35 | CN1CCN(c2ccc(-c3ccc(Cl)cc3)cn2)CC1 [CBK036945] | 149.076%
36 | Cl.Nc1ncc([C@@H]2O[C@H](CO)[C@H](O)C2O)c(=O)[nH]1 (stereo partly drawn) [CBK201205] | 163.863%
37 | COCCNc1nc(-c2cncc(OC)c2)cnc1N [CBK063606] | 141.366%
38 | COc1cc(CN2CCC3(CC2)CN(CC(N)=O)c2ccccc23)cc(OC)c1OC [CBK126774] | 115.72%
39 | N#CCCCN1CCC(Oc2nccnc2OCC2COc3ccccc3O2)CC1 (stereo not drawn) [CBK082994T] | 112.457%
40 | O=C(O)C[C@@H]1CCN(C(=O)c2ccco2)C[C@@H]1CC1=NCCc2cc(F)ccc21 [CBK289166] | 129.327%
41 | O=C(NCc1ccccc1)c1ccc(NC(=O)c2cc(-n3cnnc3)ccc2Cl)cc1 [CBK267896] | 121.335%
42 | Oc1ccc(/C=C/c2nc(-c3ccccc3O)n(-c3ccccc3)n2)cc1 [CBK265289] | 116.287%
43 | O=C1CC(c2ccco2)Cc2c1cnn2-c1nc2ccccc2s1 (stereo not drawn) [CBK269292] | 157.706%
44 | CC1=NN(c2nc(-c3cccc([N+](=O)[O-])c3)cs2)C(=O)C1/N=N/c1ccc(S(N)(=O)=O)cc1 (stereo not drawn) [CBK262434] | 128.507%
45 | Cc1ccc2c(c1)OC(C)(C)CC2NS(C)(=O)=O (stereo not drawn) [CBK307620] | 133.099%
46 | CN(C)CCCNC(=O)c1ccc(/C=N/O)[n+](C)c1 [CBK278284I] | 100%
47 | CCCN1CCC(N2CCN(c3ccc([N+](=O)[O-])cc3)CC2)CC1 [CBK018459] | 105.71%
48 | Cc1oc2cc(OCC(=O)NCC(=O)O)ccc2c(=O)c1-c1ccc(Cl)cc1 [CBK286697] | 112.633%
49 | CC(C)(C)c1ccc(NC(=O)N(CCN)Cc2c[nH]c(-c3ccccc3)n2)cc1 [CBK046297C] | 20.8611%
50 | C[C@@H]1C(=O)O[C@H]2[C@H]1CC[C@@]1(C)Cc3sc(NC(=O)CCC(=O)O)nc3[C@@H](C)[C@H]21 [CBK289429] | 117.67%
51 | CCn1nc(CC(C)C)cc1C(=O)NCCc1cn2cccnc2n1 [CBK306553] | 142.96%
52 | Cc1cc(C)n(C(CC(=O)N2CCCCC2)C(=O)O)n1 (stereo not drawn) [CBK286806] | 135.694%

Random excerpt: 6 compounds from above, in no set order.
Row | SMILES | % of control remaining
37 | COCCNc1nc(-c2cncc(OC)c2)cnc1N [CBK063606] | 141.366%
33 | CCc1nn(CC(=O)N(C)C)c(=O)c2cc3sc(C)cc3n12 [CBK284102] | 82.8915%
47 | CCCN1CCC(N2CCN(c3ccc([N+](=O)[O-])cc3)CC2)CC1 [CBK018459] | 105.71%
28 | CC(=O)N1CCC[C@H]2NC(=O)CNC(=O)C3(C/C=C/C[C@H]21)CCN(CC1CCC1)CC3 [CBK292129] | 145.12%
31 | CCOC(=O)c1c(C)nc2ccccc2c1O [CBK153666] | 111.205%
50 | C[C@@H]1C(=O)O[C@H]2[C@H]1CC[C@@]1(C)Cc3sc(NC(=O)CCC(=O)O)nc3[C@@H](C)[C@H]21 [CBK289429] | 117.67%

Following part:

Row | SMILES | % of control remaining
53 | Cc1cc(OCC(O)CN2CCN(CCO)CC2)ccc1C(C)C (stereo not drawn) [CBK278254C] | 125.714%
54 | CCOc1ccc(S(=O)(=O)NCCOC)cc1Cl [CBK270251] | 146.596%
55 | Fc1ccc(-c2cc(Nc3ccccc3)ncn2)cc1F [CBK090913] | 99.9828%
56 | CN1CCCN(C(=O)c2ccc(-c3nc(-c4ccc(C#N)cc4)cnc3N)cc2)CC1 [CBK107140] | 76.3373%
57 | N#CCCn1cc(C(N)=O)c(-c2cc3ccccc3o2)n1 [CBK306204] | 102.962%
58 | O=C(NC(c1ccccc1)c1ccccc1)C1(c2ccccc2)CCCC1 [CBK149536] | 114.378%
59 | Cc1ccc(S(=O)(=O)NCCn2nc(C)c(C)c2C)s1 [CBK281502] | 157.748%
60 | Cc1nonc1NC(=O)CSc1nc2ccccc2[nH]1 [CBK269273] | 104.745%
61 | Fc1ccccc1CCOc1cncc(Cl)n1 [CBK176038] | 109.44%
62 | N=c1n(CCCOc2ccccc2Cl)c2ccccc2n1CC(N)=O [CBK268927C] | 106.098%
63 | CS(=O)(=O)Nc1ccc(-c2cc(F)cc(F)c2)c2ccccc12 [CBK083743] | 107.164%
64 | COC(=O)c1ccccc1N1C(=O)c2cccc([N+](=O)[O-])c2C1=O [CBK115382] | 116.657%
65 | CCOc1ccc2[nH]c(C(=O)NC3CCCOC3)c(C)c2c1 (stereo not drawn) [CBK282529] | 120.618%
66 | N=C1OC2CSCC2N1C(=O)C1(c2ccccc2)CC1 (stereo not drawn) [CBK284524] | 169.453%
67 | O=C1COc2ccccc2CCCCC2(CCCN(CC(=O)N3CCCC3)C2)CN1 (stereo not drawn) [CBK292009] | 132.116%
68 | Cc1ccn(CCNC(=O)C(C)Cc2cccs2)n1 (stereo not drawn) [CBK281625] | 96.268%
69 | COc1cc(-c2cncc(Nc3ccc4c(c3)OC(F)(F)C(F)(F)O4)n2)cc(OC)c1OC [CBK065138] | 123.218%
70 | Cn1ccnc1C1(O)CC2CCC(C1)N2C(=O)NCc1ccccc1 (stereo not drawn) [CBK284050] | 140.264%
71 | c1ccc(COc2ccccc2CNCCN2CCOCC2)cc1 [CBK278212C] | 140.023%
72 | FC(F)(F)c1ccccc1/C=N/n1c(S)nnc1COc1ccccc1 [CBK265260] | 123.486%
73 | OCCN(CCO)c1cncc(-c2ccc(Cl)cc2)n1 [CBK065748] | 173.228%
74 | O=C(O)c1cc(Nc2nc(N3CCOCC3)nc(N3CCOCC3)n2)ccc1Cl [CBK268081] | 105.304%
75 | Cc1nc(NCc2ccc(C(F)(F)F)cc2)nc(N2CCN(C)CC2)n1 [CBK023866] | 108.448%
76 | CN(CC#CCN1CCCC1)C(=O)CNC(=O)OC(C)(C)C [CBK007489] | 104.322%
77 | Cc1cn(C(C)(C)C(=O)N2CCOCC2)nc1-c1ccccc1Cl [CBK005206] | 142.48%
78 | O=C(O)C1CC=CCC1C(=O)NCc1ccc2c(c1)OCO2 (stereo not drawn) [CBK264209] | 131.219%

From paper PMC12040169 (PLOS Biology, 2025)
